The other results are listed elsewhere or left out.
Tests used:
Assay in all cases: log2 fold change, soluble protein after heating vs DMSO (PISA); higher = thermal stabilisation; K562 cells, 10 uM, 30 min; active = over 0.2 and 3.5 SD of the protein, either way, in both replicates (recomputed)
[1] = compound: CS(=O)(=O)c1ccc(-c2cnc(N)c(C(=O)Nc3ccccc3)n2)cc1
In short: (§1)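 Soluble protein was defined as the supernatant after 21,000xg for 90 min. It came from K562 cells at 2×10^6 cells/mL given 10 μM compound for 30 min, heated in aliquots for 3 min across 48°C-58°C, pooled, and extracted in PBS with 0.5% NP-40 at 4°C, and was quantified by TMTpro 16plex LC-MS/MS with equalised channel sums. Thermal stability against control samples, from duplicates, is reported as log2 fold change.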

The chains behind the UniProt entries cited, without tags or fusion partners. Where a name states a change or a piece, a line headed by the entry shows the natural chain unless it says otherwise.
UniProt Q9C0E8: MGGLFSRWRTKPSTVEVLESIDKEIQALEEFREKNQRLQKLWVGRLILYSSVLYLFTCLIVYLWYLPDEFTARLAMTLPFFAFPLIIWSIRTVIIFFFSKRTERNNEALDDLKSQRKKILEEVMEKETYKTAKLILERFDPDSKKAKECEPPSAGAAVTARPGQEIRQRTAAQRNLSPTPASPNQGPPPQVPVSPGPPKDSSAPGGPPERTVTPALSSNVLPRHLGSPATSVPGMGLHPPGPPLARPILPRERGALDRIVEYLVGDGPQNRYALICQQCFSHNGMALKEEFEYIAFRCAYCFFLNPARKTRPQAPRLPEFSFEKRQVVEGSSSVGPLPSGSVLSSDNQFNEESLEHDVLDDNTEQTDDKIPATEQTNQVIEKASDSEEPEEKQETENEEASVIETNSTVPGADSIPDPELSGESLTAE
UniProt P11279: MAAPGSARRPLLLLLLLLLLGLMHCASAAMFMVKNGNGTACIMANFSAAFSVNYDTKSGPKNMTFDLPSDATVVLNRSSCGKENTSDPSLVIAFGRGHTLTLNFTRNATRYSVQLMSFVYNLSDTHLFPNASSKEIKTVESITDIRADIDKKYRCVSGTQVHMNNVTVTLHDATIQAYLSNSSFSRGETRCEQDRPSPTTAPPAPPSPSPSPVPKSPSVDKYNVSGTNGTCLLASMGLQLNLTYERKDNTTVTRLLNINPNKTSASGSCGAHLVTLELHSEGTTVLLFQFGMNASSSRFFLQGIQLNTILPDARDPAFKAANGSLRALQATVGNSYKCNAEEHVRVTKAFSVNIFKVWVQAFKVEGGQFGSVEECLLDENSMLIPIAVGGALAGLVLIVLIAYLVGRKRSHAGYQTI
UniProt P07942: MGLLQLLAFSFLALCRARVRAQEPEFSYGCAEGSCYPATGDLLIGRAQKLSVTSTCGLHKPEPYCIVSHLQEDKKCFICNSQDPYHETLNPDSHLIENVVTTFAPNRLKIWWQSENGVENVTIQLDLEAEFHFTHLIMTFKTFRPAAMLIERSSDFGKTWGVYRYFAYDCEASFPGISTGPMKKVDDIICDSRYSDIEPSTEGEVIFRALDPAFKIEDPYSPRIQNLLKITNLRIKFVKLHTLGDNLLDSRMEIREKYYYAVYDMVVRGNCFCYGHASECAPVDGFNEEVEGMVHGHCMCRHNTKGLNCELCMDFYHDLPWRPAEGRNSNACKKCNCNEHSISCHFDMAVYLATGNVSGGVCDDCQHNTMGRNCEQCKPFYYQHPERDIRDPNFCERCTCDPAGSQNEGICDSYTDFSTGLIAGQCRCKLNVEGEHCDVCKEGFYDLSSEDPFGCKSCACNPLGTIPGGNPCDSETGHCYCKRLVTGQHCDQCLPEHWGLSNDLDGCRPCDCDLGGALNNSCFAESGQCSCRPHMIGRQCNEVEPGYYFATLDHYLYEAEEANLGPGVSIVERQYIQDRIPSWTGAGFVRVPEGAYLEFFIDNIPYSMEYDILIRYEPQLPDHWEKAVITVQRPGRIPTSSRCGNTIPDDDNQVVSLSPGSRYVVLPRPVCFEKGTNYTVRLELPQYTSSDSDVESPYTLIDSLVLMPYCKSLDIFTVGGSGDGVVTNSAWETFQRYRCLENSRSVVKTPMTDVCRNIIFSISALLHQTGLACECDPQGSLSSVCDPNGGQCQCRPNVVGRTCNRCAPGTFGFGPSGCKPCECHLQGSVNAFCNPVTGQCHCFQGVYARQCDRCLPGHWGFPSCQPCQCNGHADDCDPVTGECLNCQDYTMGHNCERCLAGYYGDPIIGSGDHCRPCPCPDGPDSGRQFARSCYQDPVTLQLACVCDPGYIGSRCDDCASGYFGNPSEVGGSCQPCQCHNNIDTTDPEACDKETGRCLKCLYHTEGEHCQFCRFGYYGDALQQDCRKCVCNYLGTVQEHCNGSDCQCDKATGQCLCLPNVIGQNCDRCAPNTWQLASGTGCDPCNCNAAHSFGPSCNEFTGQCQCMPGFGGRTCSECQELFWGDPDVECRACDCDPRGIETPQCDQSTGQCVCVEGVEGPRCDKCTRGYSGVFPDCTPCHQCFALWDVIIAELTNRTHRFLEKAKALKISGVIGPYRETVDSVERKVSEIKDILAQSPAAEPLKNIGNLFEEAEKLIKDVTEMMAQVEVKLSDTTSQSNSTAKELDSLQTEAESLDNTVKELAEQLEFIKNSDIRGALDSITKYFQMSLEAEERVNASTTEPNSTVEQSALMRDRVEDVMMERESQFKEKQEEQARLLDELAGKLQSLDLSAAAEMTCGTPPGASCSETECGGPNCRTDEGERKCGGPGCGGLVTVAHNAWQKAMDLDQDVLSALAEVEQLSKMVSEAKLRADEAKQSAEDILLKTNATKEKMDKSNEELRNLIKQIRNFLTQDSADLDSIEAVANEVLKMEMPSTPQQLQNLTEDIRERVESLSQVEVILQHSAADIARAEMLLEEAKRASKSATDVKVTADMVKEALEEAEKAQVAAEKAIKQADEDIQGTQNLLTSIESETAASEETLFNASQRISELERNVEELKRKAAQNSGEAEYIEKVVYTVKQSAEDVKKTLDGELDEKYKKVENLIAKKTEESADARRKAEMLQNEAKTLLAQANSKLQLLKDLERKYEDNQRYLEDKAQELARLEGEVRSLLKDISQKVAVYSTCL
UniProt Q6IAA8, whole entry, looked up: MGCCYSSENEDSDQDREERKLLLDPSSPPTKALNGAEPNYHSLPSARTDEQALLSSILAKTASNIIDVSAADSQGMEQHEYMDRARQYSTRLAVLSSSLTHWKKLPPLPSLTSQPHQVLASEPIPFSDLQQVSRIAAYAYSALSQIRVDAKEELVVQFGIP
UniProt Q9UN81: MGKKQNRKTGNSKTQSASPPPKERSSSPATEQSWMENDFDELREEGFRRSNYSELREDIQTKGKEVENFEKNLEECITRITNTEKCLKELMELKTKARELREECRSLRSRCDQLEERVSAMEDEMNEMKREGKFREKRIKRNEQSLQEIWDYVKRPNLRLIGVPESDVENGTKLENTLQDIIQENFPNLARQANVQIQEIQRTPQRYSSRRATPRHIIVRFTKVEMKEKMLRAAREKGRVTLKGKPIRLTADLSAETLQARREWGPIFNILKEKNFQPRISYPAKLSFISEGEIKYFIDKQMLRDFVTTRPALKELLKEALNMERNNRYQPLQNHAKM
UniProt O60294: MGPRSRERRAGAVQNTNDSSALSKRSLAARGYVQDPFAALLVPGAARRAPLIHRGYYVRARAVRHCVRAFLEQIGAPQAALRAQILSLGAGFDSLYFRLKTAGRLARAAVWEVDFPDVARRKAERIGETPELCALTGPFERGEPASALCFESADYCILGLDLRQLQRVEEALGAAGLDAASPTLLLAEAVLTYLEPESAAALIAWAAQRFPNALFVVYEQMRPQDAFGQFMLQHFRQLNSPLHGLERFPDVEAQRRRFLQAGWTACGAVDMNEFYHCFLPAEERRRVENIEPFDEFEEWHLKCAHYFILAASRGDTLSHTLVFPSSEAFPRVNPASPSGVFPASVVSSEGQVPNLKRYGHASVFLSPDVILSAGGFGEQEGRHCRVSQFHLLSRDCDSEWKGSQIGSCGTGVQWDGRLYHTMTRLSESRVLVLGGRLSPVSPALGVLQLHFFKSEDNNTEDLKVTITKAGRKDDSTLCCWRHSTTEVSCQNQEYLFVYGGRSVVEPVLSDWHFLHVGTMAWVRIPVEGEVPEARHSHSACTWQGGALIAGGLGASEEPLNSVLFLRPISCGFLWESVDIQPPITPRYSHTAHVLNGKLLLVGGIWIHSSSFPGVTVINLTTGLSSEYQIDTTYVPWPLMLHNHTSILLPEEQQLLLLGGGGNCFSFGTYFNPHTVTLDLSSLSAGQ
UniProt P13473: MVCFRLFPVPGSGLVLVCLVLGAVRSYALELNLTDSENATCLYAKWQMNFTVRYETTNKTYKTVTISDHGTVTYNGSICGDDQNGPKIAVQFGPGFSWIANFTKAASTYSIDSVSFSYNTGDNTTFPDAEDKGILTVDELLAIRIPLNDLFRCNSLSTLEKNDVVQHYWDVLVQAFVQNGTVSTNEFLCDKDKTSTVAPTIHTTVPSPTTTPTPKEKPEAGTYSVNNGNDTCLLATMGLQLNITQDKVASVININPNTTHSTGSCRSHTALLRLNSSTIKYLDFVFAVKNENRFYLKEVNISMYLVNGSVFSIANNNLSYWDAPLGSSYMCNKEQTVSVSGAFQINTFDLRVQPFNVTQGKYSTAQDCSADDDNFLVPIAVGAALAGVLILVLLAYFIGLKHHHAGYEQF
UniProt O43766: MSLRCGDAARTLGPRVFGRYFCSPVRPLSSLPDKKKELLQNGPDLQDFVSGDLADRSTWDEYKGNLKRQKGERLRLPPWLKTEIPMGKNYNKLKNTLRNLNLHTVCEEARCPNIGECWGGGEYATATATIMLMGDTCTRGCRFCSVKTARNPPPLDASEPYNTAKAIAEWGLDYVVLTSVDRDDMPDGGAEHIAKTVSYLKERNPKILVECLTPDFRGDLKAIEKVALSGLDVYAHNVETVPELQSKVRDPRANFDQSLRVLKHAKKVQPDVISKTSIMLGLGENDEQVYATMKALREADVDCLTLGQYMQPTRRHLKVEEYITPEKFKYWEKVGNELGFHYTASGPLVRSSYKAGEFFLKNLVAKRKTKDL
UniProt P06858: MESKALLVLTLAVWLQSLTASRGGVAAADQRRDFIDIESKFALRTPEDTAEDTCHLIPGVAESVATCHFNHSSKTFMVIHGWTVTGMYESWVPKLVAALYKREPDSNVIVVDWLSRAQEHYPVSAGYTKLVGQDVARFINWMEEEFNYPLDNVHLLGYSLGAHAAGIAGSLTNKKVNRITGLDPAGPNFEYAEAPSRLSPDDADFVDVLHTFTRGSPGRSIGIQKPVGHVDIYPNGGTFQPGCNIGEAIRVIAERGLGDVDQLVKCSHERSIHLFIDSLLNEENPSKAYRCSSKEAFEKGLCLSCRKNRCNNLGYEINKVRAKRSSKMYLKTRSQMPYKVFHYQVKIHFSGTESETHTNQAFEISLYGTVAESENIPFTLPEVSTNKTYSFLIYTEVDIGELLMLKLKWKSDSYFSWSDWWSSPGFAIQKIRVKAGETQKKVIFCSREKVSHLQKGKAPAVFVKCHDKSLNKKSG
UniProt Q9BU23: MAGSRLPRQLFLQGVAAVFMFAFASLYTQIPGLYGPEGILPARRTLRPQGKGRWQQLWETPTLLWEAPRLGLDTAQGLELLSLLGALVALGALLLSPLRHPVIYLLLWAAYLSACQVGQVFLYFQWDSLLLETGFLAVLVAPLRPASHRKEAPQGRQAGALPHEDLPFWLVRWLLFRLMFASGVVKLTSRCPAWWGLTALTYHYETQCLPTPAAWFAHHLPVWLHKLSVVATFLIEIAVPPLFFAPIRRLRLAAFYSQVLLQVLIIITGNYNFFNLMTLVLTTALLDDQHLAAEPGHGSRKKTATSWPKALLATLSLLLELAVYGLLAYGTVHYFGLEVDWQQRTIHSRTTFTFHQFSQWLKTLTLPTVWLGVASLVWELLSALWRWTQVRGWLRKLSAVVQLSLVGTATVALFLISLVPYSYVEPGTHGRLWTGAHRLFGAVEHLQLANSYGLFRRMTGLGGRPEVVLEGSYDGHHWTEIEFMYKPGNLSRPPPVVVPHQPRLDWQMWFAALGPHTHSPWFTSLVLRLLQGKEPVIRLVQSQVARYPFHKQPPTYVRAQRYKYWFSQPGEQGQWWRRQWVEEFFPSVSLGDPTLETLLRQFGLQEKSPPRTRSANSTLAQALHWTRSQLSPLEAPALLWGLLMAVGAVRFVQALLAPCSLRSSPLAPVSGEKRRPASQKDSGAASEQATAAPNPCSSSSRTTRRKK
UniProt Q9NUN5: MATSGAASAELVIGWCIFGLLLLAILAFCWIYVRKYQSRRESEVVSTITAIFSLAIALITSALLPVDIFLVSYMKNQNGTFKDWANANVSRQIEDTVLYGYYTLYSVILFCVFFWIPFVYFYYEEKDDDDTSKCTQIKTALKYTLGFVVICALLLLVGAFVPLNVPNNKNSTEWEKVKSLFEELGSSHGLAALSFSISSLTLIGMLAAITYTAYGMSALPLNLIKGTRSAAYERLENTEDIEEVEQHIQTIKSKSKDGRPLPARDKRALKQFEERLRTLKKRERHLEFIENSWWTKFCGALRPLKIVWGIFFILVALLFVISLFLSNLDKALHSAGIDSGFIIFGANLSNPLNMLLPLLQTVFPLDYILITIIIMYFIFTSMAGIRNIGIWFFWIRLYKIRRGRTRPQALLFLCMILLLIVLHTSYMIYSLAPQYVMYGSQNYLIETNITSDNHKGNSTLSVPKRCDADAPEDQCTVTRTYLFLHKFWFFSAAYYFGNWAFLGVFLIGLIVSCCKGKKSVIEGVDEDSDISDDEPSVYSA

crizotinib = compound: C[C@@H](Oc1cc(-c2cnn(C3CCNCC3)c2)cnc1N)c1c(Cl)ccc(F)c1Cl [crizotinib]
In short: as §1

[2] = compound: C[C@@H]1COCCN1C2=NC(=NC(=C2)C3(CC3)S(=O)(=O)C)C4=C5C=CNC5=CC=C4
In short: as §1

[3] = compound: C[C@H](C1=CC=C(C=C1)C(=O)NC2=C3C=CNC3=NC=C2)N
In short: as §1

gandotinib = compound: Cc1cc(Nc2cc(CN3CCOCC3)c3nc(C)c(Cc4ccc(Cl)cc4F)n3n2)n[nH]1 [gandotinib]
In short: as §1

[4] = compound: Cc1cc(SCc2sc(-c3ccc(C(F)(F)F)cc3)nc2C)ccc1OCC(=O)O
In short: as §1

doramapimod = compound: Cc1ccc(-n2nc(C(C)(C)C)cc2NC(=O)Nc2ccc(OCCN3CCOCC3)c3ccccc23)cc1 [doramapimod]
In short: as §1

ispinesib = compound: Cc1ccc(C(=O)N(CCCN)[C@@H](c2nc3cc(Cl)ccc3c(=O)n2Cc2ccccc2)C(C)C)cc1 [ispinesib]
In short: as §1

duvelisib = compound: C[C@H](Nc1ncnc2nc[nH]c12)c1cc2cccc(Cl)c2c(=O)n1-c1ccccc1 [duvelisib]
In short: as §1

tozasertib = compound: Cc1cc(Nc2cc(N3CCN(C)CC3)nc(Sc3ccc(NC(=O)C4CC4)cc3)n2)n[nH]1 [tozasertib]
In short: as §1

| Target | log2 fold change [1] | log2 fold change (crizotinib) | log2 fold change [2] | log2 fold change [3] | log2 fold change (gandotinib) | log2 fold change [4] | log2 fold change (doramapimod) | log2 fold change (ispinesib) | log2 fold change (duvelisib) | log2 fold change (tozasertib) |
| --- | --- | --- | --- | --- | --- | --- | --- | --- | --- | --- |
| LNPK (UniProt Q9C0E8) | inactive: -0.016 | inactive: 0.077 | inactive: 0.007 | inactive: -0.036 | inactive: -0.022 | inactive: -0.085 | inactive: -0.044 | inactive: 0.022 |  |  |
| LAMP1 (UniProt P11279) | inactive: -0.025 | inactive: -0.023 | inactive: -0.002 | inactive: -0.011 | inactive: -0.036 | inactive: -0.091 | inactive: 0.059 | inactive: 0.144 | inactive: -0.074 | inactive: -0.03 |
| LARP7 isoform 3 (UniProt Q4G0J3) | inactive: -0.001 | inactive: 0.022 | inactive: 0.068 | inactive: -0.077 | inactive: -0.065 | inactive: 0.088 | inactive: 0.012 | inactive: -0.007 |  |  |
| LAMB1 (UniProt P07942) | inactive: 0.034 | inactive: 0.059 | inactive: 0 | inactive: 0.033 | inactive: 0.01 | inactive: 0.226 | inactive: 0.027 | inactive: -0.002 | inactive: -0.075 | inactive: -0.001 |
| LAMTOR1 (UniProt Q6IAA8) | inactive: -0.099 | inactive: -0.165 | inactive: -0.167 | inactive: -0.073 | inactive: 0.091 | inactive: -0.004 | inactive: 0.039 | inactive: -0.08 | inactive: -0.005 | inactive: 0.012 |
| LARP1 (UniProt Q6PKG0) | inactive: -0.04 | inactive: -0.097 | inactive: -0.172 | inactive: 0.134 | inactive: 0.026 | inactive: 0.01 | inactive: 0.06 | inactive: -0.166 |  |  |
| LIMS1 isoform 3 (UniProt P48059) | inactive: -0.022 | inactive: 0.069 | inactive: 0.045 | inactive: -0.032 | inactive: -0.007 | inactive: -0.012 | inactive: -0.027 | inactive: 0.069 | inactive: 0.042 | inactive: 0.019 |
| LARS2 (UniProt Q15031) | inactive: -0.021 | inactive: 0.013 | inactive: 0.049 | inactive: -0.045 | inactive: -0.052 | inactive: -0.001 | inactive: -0.023 | inactive: -0.001 | inactive: -0.004 | inactive: -0.011 |
| LENG8 (UniProt Q96PV6) | inactive: 0.022 | inactive: -0.342 | inactive: 0.112 | inactive: 0.107 | inactive: -0.094 | inactive: 0.055 | inactive: 0.039 | inactive: 0.241 |  |  |
| L1RE1 (UniProt Q9UN81) | inactive: -0.211 | inactive: 0.157 | inactive: -0.283 | inactive: 0.144 |  | inactive: 0.012 | inactive: 0.06 | inactive: -0.023 | inactive: -0.011 | inactive: 0.209 |
| LGALS8 isoform 2 (UniProt O00214) | inactive: -0.002 | inactive: -0.023 | inactive: -0.255 | inactive: 0.323 | inactive: -0.144 | inactive: 0.204 | inactive: 0.146 |  |  |  |
| LDHB (UniProt P07195) | inactive: 0.034 | inactive: 0.039 | inactive: 0.056 | inactive: -0.052 | inactive: -0.025 | inactive: -0.019 | inactive: -0.01 | inactive: -0.03 | inactive: 0.017 | inactive: -0.039 |
| LCMT2 (UniProt O60294) | inactive: -0.03 | inactive: -0.006 | inactive: -0.032 | inactive: -0.004 | inactive: 0.566 | inactive: -0.022 | inactive: 0.111 |  | inactive: -0.09 |  |
| LRP10 (UniProt Q7Z4F1) | inactive: -0.256 | inactive: -0.14 | inactive: -0.209 | inactive: -0.016 |  | inactive: 0.271 | inactive: -0.019 | inactive: -0.623 | inactive: -0.129 |  |
| LLGL1 (UniProt Q15334) | inactive: -0.122 | inactive: -0.587 | inactive: -0.046 | inactive: 0.018 |  | inactive: -0.049 | inactive: 0.032 |  | inactive: 0.044 | inactive: 0.135 |
| LAMP2 (UniProt P13473) | inactive: 0.055 | inactive: 0.043 | inactive: 0.006 | inactive: -0.051 | inactive: -0.104 | inactive: -0.062 | inactive: -0.039 | inactive: -0.001 |  |  |
| LRCH4 (UniProt O75427) | inactive: 0.019 | inactive: -0.031 | inactive: -0.078 |  | inactive: -0.01 | inactive: 0.249 | inactive: 0.176 | inactive: -0.095 | inactive: -0.236 |  |
| LIAS (UniProt O43766) | inactive: 0.035 | inactive: 0.03 | inactive: 0.039 | inactive: 0.075 | inactive: 0.086 | inactive: -0.08 | inactive: 0 | inactive: -0.24 |  |  |
| LRPPRC (UniProt P42704) | inactive: 0.025 | inactive: -0.822 | inactive: 0.154 | inactive: 0.065 | inactive: -0.175 | inactive: 0.481 | inactive: -0.172 | inactive: -0.416 |  |  |
| LPL (UniProt P06858) | inactive: 0.005 | inactive: -0.03 |  | inactive: 0.04 | inactive: 0.053 | inactive: -0.035 | inactive: -0.021 |  | inactive: 0.049 | inactive: 0.041 |
| LMF2 (UniProt Q9BU23) | inactive: 0.039 | inactive: 0.016 | inactive: -0.05 | inactive: 0.053 | inactive: 0.023 | inactive: 0.023 | inactive: 0.046 | inactive: -0.075 |  |  |
| LMBRD1 (UniProt Q9NUN5) | inactive: -0.003 |  | inactive: 0.111 | inactive: -0.14 | inactive: -0.137 | inactive: -0.031 |  | active: -0.61 |  |  |
| LRP6 (UniProt O75581) | inactive: -0.106 | inactive: -0.036 |  | inactive: 0.066 | inactive: -0.007 | inactive: -0.071 | inactive: -0.156 |  | inactive: 0.111 | inactive: -0.036 |
| LMNB2 (UniProt Q03252) | inactive: 0.007 | inactive: 0.039 | inactive: 0.179 | inactive: 0.079 | inactive: -0.003 | inactive: 0.033 | inactive: 0.019 | inactive: 0.016 |  |  |
| LMNA (UniProt P02545) | inactive: -0.054 | inactive: 0.064 | inactive: 0.102 | active: -0.231 | inactive: -0.098 | inactive: -0.035 | inactive: 0.018 | active: 0.214 |  |  |
